The text below walks through data of article doi:10.1101/2022.01.24.477496.

Amino acid sequences for entries named in this document (tags omitted). Residues count along the entry.
UniProt P49407, residues 2-418: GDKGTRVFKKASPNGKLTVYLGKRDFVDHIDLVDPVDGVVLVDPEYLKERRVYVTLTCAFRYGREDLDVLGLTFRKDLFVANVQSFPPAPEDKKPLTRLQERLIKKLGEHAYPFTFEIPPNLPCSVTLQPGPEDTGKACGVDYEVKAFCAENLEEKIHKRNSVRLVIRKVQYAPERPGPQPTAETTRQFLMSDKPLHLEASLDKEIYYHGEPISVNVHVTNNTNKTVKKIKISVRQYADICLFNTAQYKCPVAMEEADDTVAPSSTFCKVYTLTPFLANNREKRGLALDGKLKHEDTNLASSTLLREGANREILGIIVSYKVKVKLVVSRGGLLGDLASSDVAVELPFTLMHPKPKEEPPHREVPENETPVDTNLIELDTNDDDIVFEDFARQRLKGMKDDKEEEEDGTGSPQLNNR
UniProt P32121: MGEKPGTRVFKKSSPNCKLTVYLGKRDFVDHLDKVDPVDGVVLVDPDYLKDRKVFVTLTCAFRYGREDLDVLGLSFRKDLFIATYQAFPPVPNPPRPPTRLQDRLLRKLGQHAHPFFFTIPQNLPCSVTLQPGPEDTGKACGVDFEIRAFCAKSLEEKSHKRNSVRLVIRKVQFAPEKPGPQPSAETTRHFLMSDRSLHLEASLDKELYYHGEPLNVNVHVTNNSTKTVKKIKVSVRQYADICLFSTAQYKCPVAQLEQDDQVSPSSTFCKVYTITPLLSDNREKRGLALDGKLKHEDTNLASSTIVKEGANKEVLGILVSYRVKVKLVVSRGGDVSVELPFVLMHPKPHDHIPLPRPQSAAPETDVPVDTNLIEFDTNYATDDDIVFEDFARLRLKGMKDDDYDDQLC

These are yes or no findings as the source states them, for the method shown. Binding seen in cells or lysates may run through a third protein. Some binding calls cover weakened binding; strength is not graded here. Sequences can lack the tags named with a protein.

Common to all, as to assay: FRET or BRET
The target in test [1] is T1, SV1-Rluc8 (human) (UniProt P48546).
T1 sequence: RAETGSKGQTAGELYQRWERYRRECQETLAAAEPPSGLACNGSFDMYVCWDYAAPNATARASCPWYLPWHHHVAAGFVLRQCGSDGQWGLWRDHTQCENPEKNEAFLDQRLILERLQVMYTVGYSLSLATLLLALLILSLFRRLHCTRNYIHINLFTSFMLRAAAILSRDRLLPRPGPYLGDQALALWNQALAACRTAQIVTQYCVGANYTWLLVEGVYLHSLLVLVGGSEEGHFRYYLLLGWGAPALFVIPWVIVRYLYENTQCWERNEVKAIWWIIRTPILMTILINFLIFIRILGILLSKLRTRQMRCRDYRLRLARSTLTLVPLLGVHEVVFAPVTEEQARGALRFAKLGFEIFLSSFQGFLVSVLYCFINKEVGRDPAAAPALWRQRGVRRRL

In test [2] the target is T2, SV4-Rluc8 (human) (UniProt P48546).
T2 sequence: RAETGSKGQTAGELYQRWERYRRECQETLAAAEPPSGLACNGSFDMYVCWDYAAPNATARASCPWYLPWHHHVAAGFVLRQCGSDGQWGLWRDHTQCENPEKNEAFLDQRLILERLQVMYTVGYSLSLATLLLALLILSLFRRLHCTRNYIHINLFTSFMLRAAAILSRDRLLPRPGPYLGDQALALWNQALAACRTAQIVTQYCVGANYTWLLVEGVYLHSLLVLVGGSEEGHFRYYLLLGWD

Test [3] addresses T3, SV2-Rluc8 (human) (UniProt P48546).
T3 sequence: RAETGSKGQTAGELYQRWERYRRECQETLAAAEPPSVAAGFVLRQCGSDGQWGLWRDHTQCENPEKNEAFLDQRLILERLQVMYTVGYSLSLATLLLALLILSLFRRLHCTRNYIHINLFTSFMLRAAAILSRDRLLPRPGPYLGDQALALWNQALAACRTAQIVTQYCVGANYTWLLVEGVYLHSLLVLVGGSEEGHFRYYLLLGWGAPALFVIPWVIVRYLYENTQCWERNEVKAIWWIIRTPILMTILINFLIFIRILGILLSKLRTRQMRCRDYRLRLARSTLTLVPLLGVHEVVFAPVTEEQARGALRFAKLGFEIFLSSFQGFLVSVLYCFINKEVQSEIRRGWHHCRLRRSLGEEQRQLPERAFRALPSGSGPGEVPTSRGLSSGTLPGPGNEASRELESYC

The target in test [4] is T4, GIPR-Rluc8 (human) (UniProt P48546).
T4 sequence: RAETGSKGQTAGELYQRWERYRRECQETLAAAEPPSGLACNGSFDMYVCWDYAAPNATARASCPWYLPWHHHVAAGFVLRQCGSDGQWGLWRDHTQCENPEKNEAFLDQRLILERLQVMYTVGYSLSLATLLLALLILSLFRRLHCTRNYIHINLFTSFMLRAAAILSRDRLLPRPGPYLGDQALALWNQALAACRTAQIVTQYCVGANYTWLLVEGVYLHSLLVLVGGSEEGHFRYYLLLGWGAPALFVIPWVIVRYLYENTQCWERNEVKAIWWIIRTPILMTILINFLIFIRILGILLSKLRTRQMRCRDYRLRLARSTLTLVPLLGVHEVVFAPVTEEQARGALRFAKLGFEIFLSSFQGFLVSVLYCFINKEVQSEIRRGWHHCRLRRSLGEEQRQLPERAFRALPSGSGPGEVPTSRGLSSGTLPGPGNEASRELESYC

The target in test [5] is T5, SV3-Rluc8 (human) (UniProt P48546).
T5 sequence: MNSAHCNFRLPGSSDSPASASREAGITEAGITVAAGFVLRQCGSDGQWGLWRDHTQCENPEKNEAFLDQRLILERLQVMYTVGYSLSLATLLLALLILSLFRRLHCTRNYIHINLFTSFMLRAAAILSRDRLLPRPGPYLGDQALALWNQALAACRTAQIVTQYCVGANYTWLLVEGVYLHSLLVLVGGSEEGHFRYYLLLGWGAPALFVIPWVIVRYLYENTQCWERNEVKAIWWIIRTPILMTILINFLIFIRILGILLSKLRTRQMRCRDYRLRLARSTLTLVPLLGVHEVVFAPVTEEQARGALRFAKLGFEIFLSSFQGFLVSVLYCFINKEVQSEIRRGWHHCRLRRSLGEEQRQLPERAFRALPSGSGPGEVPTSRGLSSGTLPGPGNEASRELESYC

In the case of “Venus-β-arrestin 1 (from UniProt P49407 2-418)”, the binding result in test [1] is reported as “no binding”; in test [2], “no binding”; in test [3] it was “no binding”; in test [4], “binds”; in test [5] it was “no binding”.

Turning to “Venus-β-arrestin 2 (from UniProt P32121 1-409)”, the binding entry in test [1], in test [2], in test [3] and in test [5] was “no binding” in each case.
